The target in experiment [1] is T1, human twisted gastrulation (Tsg), native (glycosylated) (human) (UniProt Q9GZX9).
T1 sequence (chain, N-linked glycans (three predicted N-linked glycosylation sites)): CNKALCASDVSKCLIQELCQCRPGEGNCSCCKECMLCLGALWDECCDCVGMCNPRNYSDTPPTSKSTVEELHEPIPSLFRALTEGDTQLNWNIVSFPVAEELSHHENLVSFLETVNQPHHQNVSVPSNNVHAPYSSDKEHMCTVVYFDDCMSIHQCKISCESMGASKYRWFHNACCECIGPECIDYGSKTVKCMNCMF
Kind of experiment: SPR; Supplementary Fig. 1; by the methods all interactions other than those of Fig. 4 were run on a Biacore T200, 25 °C, 10 mM Hepes, 150 mM NaCl, 3 mM EDTA, 0.005% Tween-20, pH 7.4, 30 μl/min; who was immobilised was not shown; both purified. (In general: In SPR one partner is held on a chip, and binding of the other changes the refractive index at the surface.)

Sequences of proteins named here, by UniProt entry; tags and fusion partners are left off. Residues count along the entry.
UniProt P18075, residues 293-431: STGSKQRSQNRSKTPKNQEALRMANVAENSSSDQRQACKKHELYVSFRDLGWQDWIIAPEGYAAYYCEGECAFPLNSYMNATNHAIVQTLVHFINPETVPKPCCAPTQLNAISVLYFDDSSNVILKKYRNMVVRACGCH

Experiment [2] has as its target T2, natively deglycosylated human twisted gastrulation (Tsg) (human) (UniProt Q9GZX9).
T2 sequence (chain, N-linked glycans removed with PNGase-F under non-denaturing conditions): T1 sequence (chain, N-linked glycans (three predicted N-linked glycosylation sites))
Described as above.

These are yes or no findings as the source states them, for the method shown. Some binding calls cover weakened binding; strength is not graded here.

On to “human BMP-7 (from UniProt P18075 293-431) (ligand)”, for which the binding result in experiment [1] and in experiment [2] was “binds” throughout.
